These are yes or no findings as the source states them, for the method shown. In cells and extracts the contact can be indirect. Here binding means that the protein was enriched with, or labelled near, the bait; the list need not be complete.
Target: FLAG3-Strep2-tagged methanogenesis marker protein 10 (MmpX) (Methanococcus maripaludis) (UniProt Q6LX00)
Test: affinity purification with mass spectrometry; TAP-tagged (3×FLAG, Twin-Strep) MmpX purified from M. maripaludis; SDS-PAGE (Coomassie), identities of the bands confirmed by mass spectrometry

Chains of the proteins cited; added tags and fusions are not shown. Lines headed by an entry give the natural chain unless they say otherwise; changes in a name come on top.
UniProt Q6LX00: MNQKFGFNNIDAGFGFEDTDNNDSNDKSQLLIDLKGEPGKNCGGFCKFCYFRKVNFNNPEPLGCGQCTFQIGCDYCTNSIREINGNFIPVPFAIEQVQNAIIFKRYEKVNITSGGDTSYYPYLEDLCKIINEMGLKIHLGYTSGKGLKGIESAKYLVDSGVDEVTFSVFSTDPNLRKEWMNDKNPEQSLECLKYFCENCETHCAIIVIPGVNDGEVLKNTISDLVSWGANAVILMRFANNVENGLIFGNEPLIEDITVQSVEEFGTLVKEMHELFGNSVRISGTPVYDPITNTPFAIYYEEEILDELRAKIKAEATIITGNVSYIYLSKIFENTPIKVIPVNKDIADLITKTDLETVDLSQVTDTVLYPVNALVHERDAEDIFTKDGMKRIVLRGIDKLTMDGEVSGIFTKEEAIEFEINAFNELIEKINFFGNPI
UniProt Q6LY24: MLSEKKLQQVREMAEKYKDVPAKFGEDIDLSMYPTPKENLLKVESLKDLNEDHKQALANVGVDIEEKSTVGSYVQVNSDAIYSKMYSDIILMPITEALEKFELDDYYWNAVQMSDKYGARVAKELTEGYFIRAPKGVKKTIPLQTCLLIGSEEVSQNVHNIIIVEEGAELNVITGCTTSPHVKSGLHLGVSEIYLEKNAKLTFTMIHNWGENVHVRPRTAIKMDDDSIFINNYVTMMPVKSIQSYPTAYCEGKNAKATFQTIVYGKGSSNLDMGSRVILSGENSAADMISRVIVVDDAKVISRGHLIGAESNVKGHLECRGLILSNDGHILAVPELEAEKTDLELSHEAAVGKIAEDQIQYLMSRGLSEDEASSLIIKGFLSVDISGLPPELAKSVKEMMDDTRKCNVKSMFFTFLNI
UniProt Q6LY25: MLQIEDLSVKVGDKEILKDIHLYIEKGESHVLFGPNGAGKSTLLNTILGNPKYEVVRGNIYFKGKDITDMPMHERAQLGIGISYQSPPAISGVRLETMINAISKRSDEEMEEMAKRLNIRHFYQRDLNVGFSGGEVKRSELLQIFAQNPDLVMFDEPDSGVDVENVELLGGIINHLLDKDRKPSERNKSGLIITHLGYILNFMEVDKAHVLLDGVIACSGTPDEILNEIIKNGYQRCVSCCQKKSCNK

Substance | binding
Methanococcus maripaludis SufB (from UniProt Q6LY24) | binds
native Methanococcus maripaludis SufC (from UniProt Q6LY25) | binds

From publication PMC12584684, “A minimal SufB2C2 complex functions as a [4Fe-4S] cluster scaffold in methanogenic archaea” (Microbiology Spectrum, 2025)
